In publication PMC11570498:
Results are given in words; binding and its absence hold for the method and conditions named. Some results given as binding are weak or reduced against the parent protein; the word gives no strength.

Molecular target: Chlorella sorokiniana Rubisco large subunit (CsRbcL) (Chlorella sorokiniana UTEX1230 (endogenous in Chlorella cells)) (UniProt W8SUA8)
Assay: cryo-EM structure; 0.5 μM CsRubisco and 16 μM α3–α4 in 200 mM sorbitol, 50 mM HEPES, 50 mM KOAc, 2 mM Mg(OAc)2, 1 mM CaCl2, pH 6.8; D4 map of the holoenzyme and C1 map after symmetry expansion; both purified

binding: binds
Substance: Chlorella sorokiniana Rubisco large subunit (CsRbcL) (from UniProt W8SUA8 1-475)
